# Data published in patent US20250257130A1 (NONA BIOSCIENCES SUZHOU, published 2025).
# By UniProt entry, the sequences of proteins in these tests, tags left out. Residues count along the entry.
# UniProt Q01973, residues 30-937: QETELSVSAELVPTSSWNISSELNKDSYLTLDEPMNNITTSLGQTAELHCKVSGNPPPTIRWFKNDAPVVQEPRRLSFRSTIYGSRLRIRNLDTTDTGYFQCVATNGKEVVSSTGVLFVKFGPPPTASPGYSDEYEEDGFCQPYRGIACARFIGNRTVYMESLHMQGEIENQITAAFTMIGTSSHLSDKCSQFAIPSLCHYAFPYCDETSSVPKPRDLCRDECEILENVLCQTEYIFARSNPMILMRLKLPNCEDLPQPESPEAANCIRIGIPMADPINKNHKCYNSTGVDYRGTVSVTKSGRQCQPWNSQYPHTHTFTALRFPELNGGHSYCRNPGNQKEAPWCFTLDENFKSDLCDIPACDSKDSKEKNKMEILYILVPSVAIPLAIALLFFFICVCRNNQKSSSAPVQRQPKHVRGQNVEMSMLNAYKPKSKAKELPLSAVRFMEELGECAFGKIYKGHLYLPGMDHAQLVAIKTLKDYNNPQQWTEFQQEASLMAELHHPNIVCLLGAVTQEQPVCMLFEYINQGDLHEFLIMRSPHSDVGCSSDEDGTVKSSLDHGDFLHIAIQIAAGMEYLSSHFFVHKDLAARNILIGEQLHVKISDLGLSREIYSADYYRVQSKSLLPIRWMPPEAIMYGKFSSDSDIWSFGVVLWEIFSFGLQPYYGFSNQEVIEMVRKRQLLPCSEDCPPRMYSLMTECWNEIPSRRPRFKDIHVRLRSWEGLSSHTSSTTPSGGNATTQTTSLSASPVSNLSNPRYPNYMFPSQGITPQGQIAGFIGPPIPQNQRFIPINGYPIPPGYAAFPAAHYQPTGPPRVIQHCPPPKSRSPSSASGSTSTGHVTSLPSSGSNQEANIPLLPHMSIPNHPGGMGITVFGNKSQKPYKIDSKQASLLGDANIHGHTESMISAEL
# Changes are numbered by the printed parent chain. No constants are given. Whether binding was seen depends on the method and setting. Some entries that bind do so weakly or less than the wild type.
# B1: PR303125 (antibody, human IgG1, V domains shown)
# VH: EVQLLESGGGLVQPGGSLRLSCAASGFTFSSHAMSWVRQAPGKGLEWVSAISGSGDSTHYAASVKGRFTISRDNSKNTLYLQMNSLRAEDTAVYYCETLLRFLESLGNDGFKIWGQGTMVTVSS
# notes: HCAb (heavy chain-only, human IgG1 Fc), no light chain
# B2: PR005349 (antibody, human IgG1, V domains shown)
# VH: EVQLVESGGGLVKPGGSLRLSCAASGFTFSDYYMSWIRQAPGKGLEWISYISNSSSSISYANSVKGRFTVSRDNAKNSLYLQMNSLRAEDTALYYCARSPRSAFYEDFDYWGQGTLVTVSS
# notes: as for B1
# B3: PR005351 (antibody, human IgG1, V domains shown)
# VH: QVQLVESGGGLVKPGGSLRLSCAASGFKLSDFQMSWIRQAPGKGLEWVAYIDTNGSTRYYAESVKGRFTLSRDNVKNSLNLQMNGLRAEDTALYYCARIPSYTSSWYEDFDHWGQGTLVTVSS
# notes: as for B1
# B4: PR005352 (antibody, human IgG1, V domains shown)
# VH: EVQLVESGGGLVKPGGSLRLSCAASGFTFSDYYMSWIRQAPGKGLEWISYISSSGGSIYYADSVKGRFTISRDNAKNSLYLQMNRLRAEDTALYYCARTPPSSNNWYEDFDYWGQGALVTVSS
# notes: as for B1
# B5: PR303191 (antibody, human IgG1, V domains shown)
# VH: EVQLLESGGGLVQPGGSLRLSCAASGFIFGSYAMSWVRQAPGKGLEWVSGISGTGGNTYYADSVKGRFTISRDNSKNTLYLQMNSLRAEDTAVYFCERGITIHGVVIIPPDYRGQGTLVTVSS
# notes: as for B1
# B6: PR005350 (antibody, human IgG1, V domains shown)
# VH: EVQLVESGGGLVKPGGSLRLSCAASGFTLSDSQMSWIRQAPGKGVEWVSYISSSGNTIYYGDSVKGRFTISRDNAKNSLFLQMNSLRAEDTAVYYCARVPPSSSNWYEDFDIWGQGTLVTVSS
# notes: as for B1
# B7: PR005340 (antibody, human IgG1, V domains shown)
# VH: EVQLVESGGGLVKPGGSLRLSCAASGFTFSDYYMSWIRQAPGKGLEWISYISSSGSTIHYADSVKGRFTISRDNAKNSLYLQMNSLRAEDTAIYYCARDIPSSSSDWVSLQFDYWGQGTLVTVSS
# notes: as for B1
# B8: PR005346 (antibody, human IgG1, V domains shown)
# VH: EVQLVESGGGLVKPGGSLRLSCAASGFTLSDYYMSWIRQAPGKGLEWVSNISKNGFTIYYAESVKGRFTVSRDNAKNSLYLQMNSLRAEDTAIYYCARDSSGWYSEFDYWGQGTLVTVSS
# notes: as for B1
# B9: PR303201 (antibody, human IgG1, V domains shown)
# VH: EVQLLESGGGLVQPGGSLRLSCAASGFTFSGNAMSWVRQAPGKGLEWVSAISGSGDKTYYAASVKGRFTISRDNSNNTVYLQMNSLRAEDTAVYYCEKGAFRTTMDYWGQGTLVTVSS
# notes: as for B1
# B10: PR303147 (antibody, human IgG1, V domains shown)
# VH: EVQLVESGGGLVQPGGSLRLSCAASGFTFSNFWMYWVRQAPGKGLVWVSRINSDGSSTNYADSVKGRFTISRDNAKNTLYLQMNSLRVEDTAVYSCAREGSGWYEDFDYWGQGTLVTVSS
# notes: as for B1
# B11: PR000374 (antibody, human IgG1, kappa, V domains shown)
# VH: EVQLVESGGGLVQPGRSLRLSCTASGSDINDYPITWVRQAPGQGLEWIGFINSGGSTWYASWVKGRFTISRDDSKSIAYLQMNSLKTEDTAVYYCARGYSTYYRDFNIWGQGTLVTVSS
# VL: DIQMTQSPSSLSASVGDRVTINCQASQSIDSNLAWFQQKPGQPPKLLIYRASNLASGVPDRFSGSGSGTDFTLTISSLEAEDVATYYCLGGVGAVSYRTSFGGGTKVEIKR
# notes: positive control; also called Bench marker 1
# B12: PR009823 (VHH)
# VHH: B7 VH with Y32F, T57W, D62S, I100M, S109D
# B13: PR007411 (antibody, V domains shown)
# VH: B7 VH with Y32F, I100M, S109D
# notes: bivalent form (HCAb) variant of PR005340, no light chain
# B14: PR007408 (antibody, V domains shown)
# VH: B7 VH with Y32F, T57Y, I100M, S109D
# notes: as for B13
# B15: PR007410 (antibody, V domains shown)
# VH: B7 VH with Y32F, T57Y, S109D
# notes: as for B13
# B16: PR007412 (antibody, V domains shown)
# VH: B7 VH with Y32F, T57W, I100M
# notes: as for B13
# B17: PR007409 (antibody, V domains shown)
# VH: B7 VH with Y32F, T57W, S109D
# notes: as for B13
# Molecular target: cynomolgus ROR1 on CHO-K1-cynoROR1 cells (cynomolgus monkey)
# Test: flow cytometry, CHO-K1-cynoROR1 cells
row,binding,Binder
1,binds,B1
2,binds,B2
3,binds,B3
4,binds,B4
5,binds,B5
6,binds,B6
7,binds,B7
8,binds,B8
9,binds,B9
10,binds,B10

# Molecular target: cynomolgus ROR1 on CHO-K1-cynoROR1 cells (cynomolgus monkey)
# Test: flow cytometry on CHOK1-cynoROR1 cells, MFI (APC-A Median) [middle panel, letter not given]
row,binding,Binder
1,binds,B3
2,binds,B6
3,binds,B8
4,binds,B11

# Molecular target: human ROR1 on cells (HEK293T-hROR1, PANC-1, A549) (human) (UniProt Q01973)
# Test: flow cytometry, PANC-1 cells
row,binding,Binder
1,binds,B2
2,binds,B3
3,binds,B4
4,binds,B6
5,binds,B7
6,binds,B8

# Molecular target: human ROR1 on cells (HEK293T-hROR1, PANC-1, A549) (human) (UniProt Q01973)
# Test: flow cytometry on PANC-1 cells (monovalent VH-Flag-His form)
row,binding,Binder
1,binds,B12

# Molecular target: human ROR1 on cells (HEK293T-hROR1, PANC-1, A549) (human) (UniProt Q01973)
# Test: flow cytometry on PANC-1 cells, MFI (Median-APC) [bottom panel, letter not given]
row,binding,Binder
1,binds,B7

# Molecular target: human ROR1 on cells (HEK293T-hROR1, PANC-1, A549) (human) (UniProt Q01973)
# Test: flow cytometry on PANC-1 cells, MFI (Median-APC) [top panel]
row,binding,Binder
1,binds,B13
2,binds,B7
3,binds,B14
4,binds,B15
5,binds,B16
6,binds,B17

# Molecular target: cynomolgus ROR1 on CHO-K1-cynoROR1 cells (cynomolgus monkey)
# Test: flow cytometry on CHOK1-cynoROR1 cells, MFI (APC-A Median) [top panel]
row,binding,Binder
1,binds,B7
2,binds,B11

# Molecular target: cynomolgus ROR1 on CHO-K1-cynoROR1 cells (cynomolgus monkey)
# Test: flow cytometry on CHOK1-cynoROR1 cells, MFI (Mean) [bottom panel, letter not given]
row,binding,Binder
1,binds,B1
2,binds,B5
3,binds,B11
4,binds,B9
5,binds,B10

# Molecular target: human ROR1 on cells (HEK293T-hROR1, PANC-1, A549) (human) (UniProt Q01973)
# Test: flow cytometry on PANC-1 cells, MFI (FITC-A Median)
row,binding,Binder
1,binds,B3
2,binds,B6
3,binds,B8

# Molecular target: human ROR1 on cells (HEK293T-hROR1, PANC-1, A549) (human) (UniProt Q01973)
# Test: flow cytometry on PANC-1 cells, MFI (FITC-A Median) [continued) C]
row,binding,Binder
1,binds,B2
2,binds,B4

# Molecular target: human ROR1 on cells (HEK293T-hROR1, PANC-1, A549) (human) (UniProt Q01973)
# Test: flow cytometry on PANC-1 cells, MFI (APC-A Median)
row,binding,Binder
1,binds,B7

# Molecular target: human ROR1 on cells (HEK293T-hROR1, PANC-1, A549) (human) (UniProt Q01973)
# Test: flow cytometry on PANC-1 cells, MFI (Median-APC) [middle panel, letter not given]
row,binding,Binder
1,binds,B7
